No constants are given. Whether binding was seen depends on the method and setting. Binding seen in cells or lysates may run through a third protein. These calls come from enrichment with a bait or labelling near it, and not all partners need be listed. Where a sequence is shown, tags or fusion partners need not be part of it.
B1: Mts4, 19S proteasome regulatory subunit (protein, UniProt P87048 1-891)
chain: MSSKDISSKSPSGNDALNDKKGTKTSETNDRNSTNNTKERDELEDLSEEDLQLKNDLELLVQAVQDATPELVGSSLTQLKEIIRTSTSSMTAVPKPLKFLRPHYFTLVKIYDSWPQSPQKTQLADILSVLGMSYSNTSKHESLKYRLQGVTTDPSLWGHEYVRHLASEIEEEFASRQEEEAPTDDLMELALTIVPFFLTHNAEADAIDLLQELGAIEKVVPFVELDNASRVCLYITSCVNLLPFPEDVAMLRTAHAIYRKFDQLTQALNVAIRLDDMSLIKEDCEAATDPLLKKQMSYMLARQQIPMDMGDEELNDALNNTHLSDHFHYLGKELNLMDPKVPEDIFKTHLEVARTGLGASGVYSAKQNLANTFVNALVNAGYSNDRLILVDDEKTSWIYKNKESGLISATASIGLLQLWNVDMGLSLLDKYLYSSEENTKAGALLGIGVTNVAVRNEADPAMAILSEYLETGSVKLRASAILGLGLAYSGANREDLLDMLSPIVTDTDCPMQLSCLAALSLGLIFVGTCNGDVASTILQTLMEREESAQNDQWGRFMALGLALLFNGKQDLADATVETLKAIEGKIARQAEILVDICSYAGTGNVLHIQKLLHICSEPPSDDAKESETTIQTFAALGVATIAMGEDIGAEMVLRHFDHMMHYGEPSIRKAIPLALGLLSASNPQMRIFDTLSRYSHDNDLDVAYNAIFAMGLVGAGTSNARLAQLLRQLASYYHKESNALFMVRIAQGLLYLGKGTMTLNPYHTERQILGQTAFAGLMTVVLAMLDANTFVLDTSHWLLYAITLAIRPRMLITLGEDGQYLPVSVRVGQAVDVVGQAGRPKVITGWVTHTTPVLLHHNERAELATEAYTPLTSLEGIVILKKNTEDIEMTA
B2: Atp2, F1-ATPase beta subunit (protein, UniProt P22068 45-525)
chain: ASTEAAKHNKGSIKQVIGAVVDCQFEDADSLPSILNALEVKLPDNKRLVLEVAQHVGENTVRTIAMDGTEGLVRGTAVIDTGSPISIPVGPGTLGRIMNVIGEPVDERGPIKAVKYSPIHADAPSFEEQSTTPEILETGIKVVDLLAPYARGGKIGLFGGAGVGKTVFIQELINNIAKAHGGYSVFTGVGERTREGNDLYREMQETGVIKLEGESKAALVFGQMNEPPGARARVALTGLTVAEYFRDIEGQDVLLFIDNIFRFTQAGSEVSALLGRIPSAVGYQPTLATDMGAMQERITTTKKGSITSVQAVYVPADDLTDPAPATTFAHLDATTVLSRSISELGIYPAVDPLDSKSRMMDPRILGEEHYNLAGSVQQMLQEYKSLQDIIAILGMDELSEADKLTVERARKVQRFLSQPFAVAEVFTGIEGRLVSLKDTIRSFKEILEGKHDSLPESAFYMVGSIDDAVKKAEKIAQELAA
B3: Vrs2, valine-tRNA ligase (protein, UniProt O75005 1-980)
chain: MADKGCEAAQSKDSSAPGSGEPRPKTEKELERERQKAAKLEKYHAKLAAKKAKEEARKPKLDKKAKIASPVAEYVEKTTPGEKKVLQDLDSPALKSYNPKAVESAWYDWWVKSGFFEPEFGPDGKPKKEGVFVITSPPPNVTGALHIGHALTIAIQDSLARWNRMLGKTVLFLGGFDHAGLSTQSVVEKKLWYTQKKTRHDYPRDKFVDIVWEWKEEYHNRIKNQMSRLGGSFDWTREAFTMDENLSRAVVETFVRLHEENIIYRANRLVNWCTALQTTLSNLEVENVDVPGRTLLKVPGYDEPVEVGVLTSIAYAVEGSDERIVIATTRPETLLGDTAVAVHPQDPRYKHLHGKFVKHPFCNRSIPIICDDIIVDMEFGTGAVKITPAHDPNDYEVGKRHNLEFINIFTDDGLLNENCGEFAGMKRFTARVKVVERLKELGLFVGTKENPMVIPLCGKTSDIIEPVMKPQWWVNQKEMAAAAAEVVKSGEIEIAPDMSRREFIRWMENIQDWCISRQLWWGHRIPAYFVNLADEPSQDRSEGRYWVTGRTLEQAEEKAKAAFPGKSFTLEQDEDVLDTWFSSGLWPFSTLGWPKDTSDYENFYPTTLMETGWDILFFWIARMVMLGLKLTGKIPFKRVFCHALVRDAQGRKMSKSLGNVVDPIDVIEGISLQALHDKLLVGNLDSREVEKAKKGQRLSYPKGIPQCGTDALRFTLCSLTTGGRDLNLDILRVEGYRKFCNKLYNATKFALGRLGSNFVPNKTADLTGNESLVEKWIFHRLNIAAAAMNKNMEEMNFLQATSAVHQFWLYELCDVYIENSKYLLSDGTEVQQESAKQTLYTVLDNALRLMHPFMPYVTEEMWQRLPRRPGDKTQTIVKAAFPVERVDYSNEIAAKYYESIITVVHSTRSMMAENGIKSDAVVYIHPDEEHSKLITSESASIQSLIKKCKTLSIVDNTFDSDKCVKNEVLEGSTIFLERNN

Target: T1, Slm9-3XFLAG (S. pombe) (UniProt O74309)
T1 sequence: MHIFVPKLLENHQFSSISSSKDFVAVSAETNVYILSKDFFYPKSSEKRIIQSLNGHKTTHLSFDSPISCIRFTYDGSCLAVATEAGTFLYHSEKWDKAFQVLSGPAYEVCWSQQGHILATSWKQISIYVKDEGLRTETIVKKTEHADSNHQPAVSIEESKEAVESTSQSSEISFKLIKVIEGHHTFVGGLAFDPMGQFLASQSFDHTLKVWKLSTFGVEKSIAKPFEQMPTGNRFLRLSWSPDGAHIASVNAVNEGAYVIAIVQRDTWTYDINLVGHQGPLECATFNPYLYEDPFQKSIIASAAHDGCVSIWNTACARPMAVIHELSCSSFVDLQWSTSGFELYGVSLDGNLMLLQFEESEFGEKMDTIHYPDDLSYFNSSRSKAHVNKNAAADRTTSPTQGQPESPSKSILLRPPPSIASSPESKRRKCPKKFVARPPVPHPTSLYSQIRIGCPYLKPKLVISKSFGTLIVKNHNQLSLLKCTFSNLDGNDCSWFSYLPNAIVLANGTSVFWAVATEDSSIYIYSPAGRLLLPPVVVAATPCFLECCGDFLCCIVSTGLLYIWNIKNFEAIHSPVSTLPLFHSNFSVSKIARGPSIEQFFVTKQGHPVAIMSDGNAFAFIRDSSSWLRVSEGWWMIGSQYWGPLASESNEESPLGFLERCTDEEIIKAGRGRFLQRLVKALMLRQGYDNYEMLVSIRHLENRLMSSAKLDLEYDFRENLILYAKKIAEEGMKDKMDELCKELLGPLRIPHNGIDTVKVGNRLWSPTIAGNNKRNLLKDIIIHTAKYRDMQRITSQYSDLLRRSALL
Test: affinity purification with mass spectrometry; extracts from 5 g of cells expressing Slm9-FLAG, Dynabeads coupled to anti-FLAG M2 antibody for 15 mins, Benzonase treatment, on-bead tryptic digestion, LC-MS/MS; listed proteins found in at least two independent purifications and absent from four control purifications from untagged cells

binding, binds:
B1
B2
B3
